From the supplement of paper PMC3682954
Several values for one entry are separate records, joined by “and”; a condition that tells them apart may be missing. Equal values may be shown once. Where a name gives a salt, the structure may show the parent alone. ± gives the standard deviation of the averaged measurements. This is one part of the list. Repeats are few or missing, and single values can be far off.

Tested on: RAW 264.7
Assay: HMGB1-induced TNF-alpha production relative to HMGB1-stimulated control; higher = more TNF-alpha secretion (less inhibition)
Conditions: stimulus: HMGB1 5 ug/ml, 18 h
[1] = compound concentration: 1 ug/ml

| SMILES | HMGB1-induced TNF-alpha production (compound concentration: 3 uM) | HMGB1-induced TNF-alpha production [1] |
| --- | --- | --- |
| Cc1ncc([N+](=O)[O-])n1CC(C)O (centres undefined) [Secnidazole] | 101 ± 25% |  |
| Cc1ncc([N+](=O)[O-])n1CC(C)O (centres undefined) | 83.4% |  |
| Cc1ncc([N+](=O)[O-])n1CC(C)O (centres undefined) [1-(2-Methyl-5-nitro-imidazol-1-yl)-propan-2-ol] | 108% |  |
| COc1ccc2cc([C@H](C)C(=O)O)ccc2c1 [(-)-Naproxen sodium] | 99.1% |  |
| COc1ccc2cc([C@H](C)C(=O)O)ccc2c1 | 98.9% |  |
| COc1ccc2cc([C@H](C)C(=O)O)ccc2c1 [Naproxen] | 81.8 ± 35% |  |
| C=C(C)[C@H]1CC=C(C)C(=O)C1 [D(+)-Carvone] |  | 81% |
| Nc1cc(N2CCCCC2)nc(N)[n+]1[O-] | 94.1% |  |
| Nc1cc(N2CCCCC2)nc(N)[n+]1[O-] [Minoxidil] | 79.7 ± 12% |  |
| Nc1ncnc2c1ncn2[C@@H]1O[C@H](COP(=O)(O)OP(=O)(O)OP(=O)(O)OP(=O)(O)OC[C@@H]2O[C@H](n3cnc4c(N)ncnc43)C(O)[C@@H]2O)[C@H](O)C1O (some centres undefined) [P1,P4-Di(adenosine-5')tetraphosphate triammonium] | 104% |  |
| CN(C)C(=O)n1nnnc1Cc1ccc(-c2ccccc2)cc1 | 149% |  |
| CC1(C)S[C@@H]2[C@H](NC(=O)[C@H](N)c3ccccc3)C(=O)N2[C@H]1C(=O)O | 82.1% |  |
| CC1(C)S[C@@H]2[C@H](NC(=O)[C@H](N)c3ccccc3)C(=O)N2[C@H]1C(=O)O [Ampicillin] | 94.7% |  |
| CC1(C)S[C@@H]2[C@H](NC(=O)[C@H](N)c3ccccc3)C(=O)N2[C@H]1C(=O)O [Ampicillin trihydrate] | 76.6% |  |
| C=C[C@H]1CN2CC[C@H]1C[C@H]2[C@H](O)c1ccnc2ccc(OC)cc12 | 84.3% and 90% |  |
| C=C[C@H]1CN2CC[C@H]1C[C@H]2[C@H](O)c1ccnc2ccc(OC)cc12 [Quinine] |  | 52.8% |
| C=C[C@H]1CN2CC[C@H]1C[C@H]2[C@H](O)c1ccnc2ccc(OC)cc12 [Quinine sulfate] | 78.3% |  |
| O=c1n(CCCN2CCN(c3cccc(Cl)c3)CC2)nc2ccccn12 | 106 ± 0.94% |  |
| O=c1n(CCCN2CCN(c3cccc(Cl)c3)CC2)nc2ccccn12 [Trazodone hydrochloride] | 89.5 ± 19% |  |
| CC(=O)NCCCCCC(=O)O | 70.1% |  |
| O=C(O)c1cc(=O)[nH]c(=O)[nH]1 | 88.9% |  |
| Oc1ccc(-c2nc(-c3ccc(F)cc3)c(-c3ccncc3)[nH]2)cc1 | 45.5% |  |

| SMILES | HMGB1-induced TNF-alpha production (compound concentration: 3 uM) | HMGB1-induced TNF-alpha production [1] |
| --- | --- | --- |
| CCC(NC(C)C)C(O)c1ccc(O)c2[nH]c(=O)ccc12 (centres undefined) [Procaterol] | 67% |  |
| Nc1nc(N)c(N=O)c(OCC2CCCCC2)n1 | 99.4% |  |
| CO[C@@H]1[C@H](OC(=O)/C=C/C=C/C=C/C=C/C(=O)O)CC[C@]2(CO2)[C@H]1[C@@]1(C)O[C@@H]1CC=C(C)C [Fumagillin] | 91.1% |  |
| NC(=O)c1cnccn1 [Pyrazinecarboxamide] | 94.3% |  |
| NC(=O)c1cnccn1 | 84.8% |  |
| NC(=O)c1cnccn1 [Pyrazinamide] | 64.2% |  |
| CCCn1c(=O)c2[nH]c(C3CCCC3)nc2n(CCC)c1=O [8-Cyclopentyl-1,3-dipropylxanthine] | 82.4% |  |
| O=C(CCNNC(=O)c1ccncc1)NCc1ccccc1 | 97.6 ± 14% |  |
| O=C(CCNNC(=O)c1ccncc1)NCc1ccccc1 [Nialamide] | 108 ± 8.9% |  |
| N/C(=N\C(=O)c1nc(Cl)c(N)nc1N)NCc1ccccc1 [Benzamil hydrochloride] | 84 ± 17% |  |
| N/C(=N\C(=O)c1nc(Cl)c(N)nc1N)NCc1ccccc1 [Benzamil] | 84.1% |  |
| CCC(=O)c1ccc2c(c1)N(CCCN(C)C)c1ccccc1S2 [Propionylpromazine hydrochloride] | 94.2% |  |
| Cc1nc2ccccn2c(=O)c1CCN1CCC(C(=O)c2ccc(F)cc2)CC1 | 91.4 ± 23% |  |
| Cc1nc2ccccn2c(=O)c1CCN1CCC(C(=O)c2ccc(F)cc2)CC1 [Pirenperone] | 89.8 ± 23% |  |
| CSc1nc2cc(Cl)c(Oc3cccc(Cl)c3Cl)cc2[nH]1 | 79.5 ± 29% |  |
| CCCCC[C@H](O)/C=C/[C@H]1[C@H](O)CC(=O)[C@@H]1C/C=C\CCCC(=O)O [Dinoprostone] | 67% |  |
| COc1cccc2c1C(=O)c1c(O)c3c(c(O)c1C2=O)C[C@@](O)(C(=O)CO)C[C@@H]3O[C@H]1C[C@H](N)[C@@H](O)[C@H](C)O1 | 16.9 ± 7.3% |  |
| O[C@H]1[C@H](O)[C@@H](O)[C@H](O)[C@@H](O)[C@H]1O | 84.4% |  |
| N=C(N)c1ccc(N)cc1 [4-Aminobenzamidine dihydrochloride] | 90.2% |  |
| CCCN(CCC)CCc1cccc2c1CC(=O)N2 [Ropinirole hydrochloride] | 89.3% |  |
| CCCN(CCC)CCc1cccc2c1CC(=O)N2 | 93.4% |  |
| CCCN(CCC)CCc1cccc2c1CC(=O)N2 [Ropinirole HCl] | 111% |  |

Quoted at random: 4 entries already listed.

| SMILES | HMGB1-induced TNF-alpha production (compound concentration: 3 uM) | HMGB1-induced TNF-alpha production [1] |
| --- | --- | --- |
| O[C@H]1[C@H](O)[C@@H](O)[C@H](O)[C@@H](O)[C@H]1O | 84.4% |  |
| CCCCC[C@H](O)/C=C/[C@H]1[C@H](O)CC(=O)[C@@H]1C/C=C\CCCC(=O)O [Dinoprostone] | 67% |  |
| COc1ccc2cc([C@H](C)C(=O)O)ccc2c1 | 98.9% |  |
| CO[C@@H]1[C@H](OC(=O)/C=C/C=C/C=C/C=C/C(=O)O)CC[C@]2(CO2)[C@H]1[C@@]1(C)O[C@@H]1CC=C(C)C [Fumagillin] | 91.1% |  |
